Assay results published in article PMC8593051.
Results are given in words; binding and its absence hold for the method and conditions named. Binding seen in cells or lysates may run through a third protein. These calls come from enrichment with a bait or labelling near it, and not all partners need be listed.

Target: T1, WDR63 (endogenous, mouse testicular extracts) (mouse (endogenous in testis)) (UniProt B2RY71)
T1 sequence: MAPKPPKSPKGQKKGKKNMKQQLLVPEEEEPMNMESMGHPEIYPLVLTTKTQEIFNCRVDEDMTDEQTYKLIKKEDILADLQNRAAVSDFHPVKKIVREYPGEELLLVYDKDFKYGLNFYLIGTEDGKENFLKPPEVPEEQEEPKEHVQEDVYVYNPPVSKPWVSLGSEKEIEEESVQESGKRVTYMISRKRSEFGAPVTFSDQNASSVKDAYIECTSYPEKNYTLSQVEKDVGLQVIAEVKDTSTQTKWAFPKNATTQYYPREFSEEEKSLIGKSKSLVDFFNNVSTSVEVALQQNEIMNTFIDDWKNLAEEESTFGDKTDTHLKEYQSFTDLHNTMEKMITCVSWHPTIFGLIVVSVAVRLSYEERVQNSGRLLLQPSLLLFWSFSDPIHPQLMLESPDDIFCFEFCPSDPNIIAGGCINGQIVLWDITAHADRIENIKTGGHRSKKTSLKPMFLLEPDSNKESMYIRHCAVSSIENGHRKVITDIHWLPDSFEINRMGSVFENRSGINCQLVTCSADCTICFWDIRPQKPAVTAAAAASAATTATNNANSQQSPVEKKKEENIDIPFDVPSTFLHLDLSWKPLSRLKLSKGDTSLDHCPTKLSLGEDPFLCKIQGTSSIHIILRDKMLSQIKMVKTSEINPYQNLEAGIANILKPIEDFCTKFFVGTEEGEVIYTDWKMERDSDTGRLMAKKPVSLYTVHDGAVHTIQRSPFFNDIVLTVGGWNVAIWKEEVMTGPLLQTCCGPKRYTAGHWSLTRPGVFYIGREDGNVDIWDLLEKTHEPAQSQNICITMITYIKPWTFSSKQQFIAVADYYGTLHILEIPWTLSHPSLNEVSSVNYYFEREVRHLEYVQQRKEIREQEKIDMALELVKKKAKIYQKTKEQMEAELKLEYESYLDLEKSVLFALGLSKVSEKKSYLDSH
Experiment: affinity purification with mass spectrometry; immunoprecipitation with testicular extracts using anti-WDR63 antibodies, mass spectrometric analysis

- binding: binds
B1: WDR78 (endogenous, mouse testicular extracts) (protein, UniProt E9PYY5 1-807)
chain: MHSSPTSTRKQASFAASASAQPRKSISFINPSKSSAGKGYAASNPNKLAVSRTMGFLTDMKPAEKLNVPSAKTVQVLDSKGVDVTPRPLYHPDPHAASAKPNKLLTSQEGSLGSDYISSYSLYQNTLNPSMLGQYTRSVLGSSSVSKSSISTTESMSEDLEDSSYKRDRLASFTDVRVLRSTAEAAISKEELEKTIEIILTETETLRFFDLPTVMFSTESEEAEKIIEKNKKYETLCRNRLGNDLYVERMMQTFNGAPKNKEVQCEKIILEEKGVVATTWDLYDSYNIPETLLAAKRSGYSSKGSLPAKDRDPKIQDSESSSLMDIENVILAKVQEDEEDNSEAILKSDKLHQDLFYMERVLMENVFQPKLAAYRQLPVYKEHEPEEPEETLQVENLKVAEDEPKKEDEEEVEMELELEIATEQSTIPANLERLWSFSCDLTKGLNVSSLSWNKANPDLLAVGYGNFGFREQKKGMACCWSIKNPMWPERIYQSSYGVTSVDFSNSSPNLLAVGYHNGTVAIYNVQSSHNIPVLDSSESPQKHLGPVWQVQWIEQDRGTTGDDKREILVSISADGRISKWIIRKGLDCHDLMRLKRTTATGGKKGGEKEKKGEALISRQAPGMCFAFHPKDTNIYLAGTEEGLIHKCSCSYNEQYLETYRGHKGPVYKVTWNPFCPDVFLSCSADWGVMIWHQDTVKPFLSFYPTTYVVYDVSWSPKSAYIFAAANENRVEIWDLQISTLDPLIVNVANPGIKFTTVLFAKETDCLLVGDSDGQVAVYELRNMPTASDTSRGDVINILLGPKTNHTG
